The values that follow come from patent US6723733B2, “Sulfonamide and carbamide derivatives of 6(5H)phenanthridinones and their uses” (Guilford Pharmaceuticals, Inc., priority 2000, dated 2004).

The structures appear in SMILES notation.

The data set has as its system male Long-Evans rats. The data set can be described thus: Focal cerebral ischemia (MCA cauterization with temporary bilateral CCA occlusion). Format: in vivo, rat. The note with it: for PaCO2 / PaO2 / arterial pH: arterial blood 30 minutes after MCA occlusion; for MABP Ischemia: average during occlusion; for relative blood flow in the right parietal cortex, of the baseline: during occlusion, laser Doppler, control 20.8±7.7%; for MABP Steady State: just prior to occlusion.

For `O=C1NCCc2c(OCCCCN3CCCCC3)cccc21` [DPQ, 3,4-dihydro-5-[4-(1-piperidinyl)-butoxy]-1(2H)-isoquinolinone], under “5 mg/kg-treated group”, the PaCO2 was 38.0 ± 2.8 mm Hg, the PaO2 is reported as 126 ± 20 mm Hg, the “arterial pH” value came to 7.36 ± 0.02 and the “MABP Ischemia” value is 91 ± 12 mm Hg. Further, under “5 mg/kg-treated group”, the “relative blood flow in the right parietal cortex, of the baseline” value (shortened to “relative blood flow”) was determined as 18.7±7.4% and the “MABP Steady State” value is 78 ± 5 mm Hg. For the setting “10 mg/kg-treated group”, the PaCO2 amounted to 39.3 ± 5.2 mm Hg, the PaO2 is given as 125 ± 16 mm Hg, the “arterial pH” value is on record as 7.34 ± 0.03 and the “MABP Ischemia” value is 90 ± 14 mm Hg. Under “10 mg/kg-treated group”, the “relative blood flow” value was determined as 21.4±7.7% and the “MABP Steady State” value is recorded as 80 ± 9 mm Hg. In addition, where the note is “20 mg/kg-treated group”, the PaCO2 was determined as 41.3 ± 2.8 mm Hg, the PaO2 was 122 ± 14 mm Hg, the “arterial pH” value was 7.35 ± 0.23 and the “MABP Ischemia” value is 91 ± 12 mm Hg. The “MABP Steady State” value (20 mg/kg-treated group) is 79 ± 10 mm Hg. Further, for the setting “40 mg/kg-treated group”, the PaCO2 is 39.5 ± 4.7 mm Hg, the PaO2 was determined as 137 ± 17 mm Hg, the “arterial pH” value turned out to be 7.33 ± 0.24 and the “MABP Ischemia” value was determined as 88 ± 12 mm Hg. For the same molecule, where the note is “40 mg/kg-treated group”, the “relative blood flow” value amounted to 19.3±11.2% and the “MABP Steady State” value was found to be 78 ± 4 mm Hg.
